Drawing on PMC6389893, this text covers binding for 1 molecule.

These are yes or no findings as the source states them, for the method shown. Binding seen in cells or lysates may run through a third protein. A result given as binding can be weak or reduced; the word gives no strength.

In the assay the target is GST-IN full length (HIV-1). Briefly: pull-down; GST pull-down of wild-type TRIM33 and its RING and PHD point mutants with IN (Supplementary Fig. 6c); how the TRIM33 proteins were made is not told for this panel.

B1: TRIM33 RING(C125A/C128A) (protein, UniProt Q9UPN9 1-1127)
chain: MAENKGGGEAESGGGGSGSAPVTAGAAGPAAQEAEPPLTAVLVEEEEEEGGRAGAEGGAAGPDDGGVAAASSGSAQAASSPAASVGTGVAGGAVSTPAPAPASAPAPGPSAGPPPGPPASLLDTAAVAQQSLQSRREAEPKLLPCLHSFCLRCLPEPERQLSVPIPGGSNGDIQQVGVIRCPVCRQECRQIDLVDNYFVKDTSEAPSSSDEKSEQVCTSCEDNASAVGFCVECGEWLCKTCIEAHQRVKFTKDHLIRKKEDVSESVGASGQRPVFCPVHKQEQLKLFCETCDRLTCRDCQLLEHKEHRYQFLEEAFQNQKGAIENLLAKLLEKKNYVHFAATQVQNRIKEVNETNKRVEQEIKVAIFTLINEINKKGKSLLQQLENVTKERQMKLLQQQNDITGLSRQVKHVMNFTNWAIASGSSTALLYSKRLITFQLRHILKARCDPVPAANGAIRFHCDPTFWAKNVVNLGNLVIESKPAPGYTPNVVVGQVPPGTNHISKTPGQINLAQLRLQHMQQQVYAQKHQQLQQMRMQQPPAPVPTTTTTTQQHPRQAAPQMLQQQPPRLISVQTMQRGNMNCGAFQAHQMRLAQNAARIPGIPRHSGPQYSMMQPHLQRQHSNPGHAGPFPVVSVHNTTINPTSPTTATMANANRGPTSPSVTAIELIPSVTNPENLPSLPDIPPIQLEDAGSSSLDNLLSRYISGSHLPPQPTSTMNPSPGPSALSPGSSGLSNSHTPVRPPSTSSTGSRGSCGSSGRTAEKTSLSFKSDQVKVKQEPGTEDEICSFSGGVKQEKTEDGRRSACMLSSPESSLTPPLSTNLHLESELDALASLENHVKIEPADMNESCKQSGLSSLVNGKSPIRSLMHRSARIGGDGNNKDDDPNEDWCAVCQNGGDLLCCEKCPKVFHLTCHVPTLLSFPSGDWICTFCRDIGKPEVEYDCDNLQHSKKGKTAQGLSPVDQRKCERLLLYLYCHELSIEFQEPVPASIPNYYKIIKKPMDLSTVKKKLQKKHSQHYQIPDDFVADVRLIFKNCERFNEMMKVVQVYADTQEINLKADSEVAQAGKAVALYFEDKLTEIYSDRTFAPLPEFEQEEDDGEVTEDSDEDFIQPRRKRLKSDERPVHIK
As for B1, the binding entry is reported as “binds”.
